{"sequences": {"note": "Amino acid sequences for entries named in this document (tags omitted).", "UniProt Q13526": "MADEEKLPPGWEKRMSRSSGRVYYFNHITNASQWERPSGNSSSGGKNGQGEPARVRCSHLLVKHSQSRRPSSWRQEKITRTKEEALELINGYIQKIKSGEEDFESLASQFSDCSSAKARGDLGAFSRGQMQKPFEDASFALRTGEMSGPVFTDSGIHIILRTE"}, "source": "patent US6462173B1", "about": "“Inhibitors of phosphoserine and phosphothreonine-proline-specific isomerases” (Max-Planck-Gesellschaft zur Forderung der, priority 1997, dated 2002)", "target": "T1, Mos (Xenopus, in vitro translated), incubated in mitotic extract (Xenopus) (UniProt P12965)", "T1 sequence (phosphorylated by incubation in mitotic Xenopus extract; sites not stated, looked up)": "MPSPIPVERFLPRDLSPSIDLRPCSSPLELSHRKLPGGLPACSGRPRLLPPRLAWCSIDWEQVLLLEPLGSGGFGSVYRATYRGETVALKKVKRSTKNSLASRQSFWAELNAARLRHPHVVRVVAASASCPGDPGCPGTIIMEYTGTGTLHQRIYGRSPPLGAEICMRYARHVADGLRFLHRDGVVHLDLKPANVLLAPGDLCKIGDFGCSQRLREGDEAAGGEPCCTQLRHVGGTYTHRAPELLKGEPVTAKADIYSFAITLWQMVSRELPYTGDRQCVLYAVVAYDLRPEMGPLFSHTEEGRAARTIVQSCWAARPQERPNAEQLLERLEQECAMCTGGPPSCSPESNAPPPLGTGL", "test": "GST-Pin1 bead pull-down of in vitro translated protein incubated in mitotic Xenopus extract", "note": "No constants are given. Whether binding was seen depends on the method and setting. In cells and extracts the contact can be indirect. Some results given as binding are weak or reduced against the parent protein; the word gives no strength."}
{"substance": "GST-Pin1 (glutathione-S-transferase fusion protein containing full length Pin1) (from UniProt Q13526 1-163) (enzyme)", "values": [{"measurement": "binding", "result": "binds"}]}
